Earlier results, collected in patent publication US8597645B2, “Cancer treatment with endothelin receptor antagonists” (New York University, priority 1999, dated 2013).
For at least one compound, name, drawing or mass did not settle the structure.

Tested on: metastatic melanoma
Settings: single agent; cited from earlier work

For `CN(C)/N=N/c1[nH]cnc1C(N)=O` [dacarbazine, 5-(3,3-Dimethyl-1-triazenyl)-1-H-imidaz-ole-4-carboxamide], the overall response rate is listed as 24%.
